# Assay results taken from PubChem BioAssay AID1487 (National Center for Advancing Translational Sciences (NCATS), 2009).
# This is one part of the list. Shown are side measurements of this screen, not its main read-out; they come without a call. The list favours compounds with an active or inconclusive main result. Words in brackets tell the shape of the fitted curve; partial curves, single points and poor fits give uncertain potencies.
# Experiment: qHTS Assay for Modulators of Lamin A Splicing
# Details: HeLa LMNA splicing GFP/RFP minigene ratio, 48 h
# Summary of the method: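 Read-out is the ratio of GFP to DsRed2 object intensity, acquired by 488 nm laser-scanning cytometry on HeLa lamin A-EGFP minigene reporter cells. Compound incubation 48 hrs at 37 °C in Opti-MEM with 2% FBS; DMSO 0.5% final.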
# [1] = measured here: GFP splicing reporter channel
# [2] = measured here: RFP viability control channel
SMILES,AC50 [1],AC50 [2]
COc1ccc(CC(=O)Nc2cccc(S(=O)(=O)N3CCCCCC3)c2)cc1OC,"1.26 µM [rising, partial curve]","1.12 µM [rising, full curve]"
Cc1ccc2nc(/C(C#N)=C\c3ccc(N4CCCCC4)c([N+](=O)[O-])c3)[nH]c2c1,"15.8 µM [rising, single point]",
C=CCCCCCCCCCCC/C=C/C(O)COC(C)=O (centres undefined),"4.47 µM [rising, full curve, poor fit]","8.91 µM [rising, partial curve, poor fit]"
CCc1[nH]nc2c1C(c1ccncc1)C(C#N)=C(N)O2 (centres undefined),,"15.8 µM [rising, single point]"
CCS(=O)(=O)N1Cc2ccccc2CC1C(=O)Nc1nc2ccc(F)cc2s1 (centres undefined),,"10 µM [rising, partial curve, poor fit]"
CC(CC(=O)Nc1ncc([N+](=O)[O-])s1)c1ccccc1 (centres undefined),"0.631 µM [rising, full curve]","20 µM [rising, single point]"
Cc1cc(C(F)(F)F)nn1CC(=O)NCc1ccco1,,"8.91 µM [falling, partial curve, poor fit]"
COc1ccc(Cn2c(-c3ccc(Cl)cc3)c[n+]3ccccc23)cc1,,"5.01 µM [rising, full curve]"
Oc1ccccc1N1CCN(C(=S)NCc2ccccc2)CC1,"1 µM [falling, partial curve, poor fit]","0.0447 µM [falling, full curve, poor fit]"
CNC(=S)N/N=C/c1ccc(-c2ccc(Cl)c([N+](=O)[O-])c2)o1,"15.8 µM [falling, single point]","12.6 µM [falling, partial curve]"
COc1ccc(Br)cc1CNC(=O)c1cc2n(n1)CCCN(Cc1ccc(C)cc1)C2=O,,"1.58 µM [falling, partial curve, poor fit]"
COC(=O)c1ccccc1NC(=O)CSc1nc2ncccc2[nH]1,,"0.0251 µM [falling, full curve, poor fit]"
O=C(COc1ccccc1)Nc1ccc(N2CCN(C(=O)c3cccs3)CC2)cc1,"7.94 µM [falling, partial curve]","2.51 µM [falling, partial curve]"
O=C1C(=O)c2c(C(=O)c3ccccc3)coc2-c2ccccc21,"35.5 µM [falling, single point]","35.5 µM [falling, partial curve]"
N#CC1=C(S)N=C(N)C(c2nc(-c3ccccc3)cs2)C12CCCCC2 (centres undefined),,"12.6 µM [rising, single point]"
Cc1ccc(/C=N/NC(=O)c2cc(C3CC3)nc3ccccc23)o1,,"11.2 µM [rising, partial curve]"
Cc1ccc(C2c3[nH]c4ccccc4c3CCN2C(=O)c2cccc(C)c2)cc1 (centres undefined),"0.158 µM [rising, full curve, poor fit]","3.98 µM [rising, single point]"
O=S(=O)(Nc1nc2c(s1)CCCC2)c1ccc2ccccc2c1,,"15.8 µM [rising, single point]"

# Copied from the list.
# AC50 [2], COc1ccc(Br)cc1CNC(=O)c1cc2n(n1)CCCN(Cc1ccc(C)cc1)C2=O reads 1.58 µM [falling, partial curve, poor fit]
# AC50 [1], Oc1ccccc1N1CCN(C(=S)NCc2ccccc2)CC1 reads 1 µM [falling, partial curve, poor fit]
# AC50 [2], O=S(=O)(Nc1nc2c(s1)CCCC2)c1ccc2ccccc2c1 reads 15.8 µM [rising, single point]

# Additional records

SMILES,AC50 [1],AC50 [2]
CCCC(C(=O)n1nc(C)cc1C)C(NS(=O)(=O)c1ccc(C)cc1)c1ccccc1 (centres undefined),"35.5 µM [rising, single point]","17.8 µM [rising, single point]"
CC1CC(OC(=O)C(O)c2ccccc2)CC(C)(C)N1C (centres undefined),"35.5 µM [falling, single point]","35.5 µM [falling, single point]"
CCCn1c2c(c(=N)c3c1CCC3)CCCC2,"2 µM [rising, full curve]","6.31 µM [rising, partial curve]"
CCC(Sc1ncnc2c1c(-c1ccccc1)cn2-c1ccc(OC)cc1)C(=O)OC (centres undefined),,"6.31 µM [rising, partial curve, poor fit]"
O=C(CSC1=NCCS1)NCc1ccco1,,"25.1 µM [rising, single point]"
CCC(Cc1ccccc1)NC(=O)C1=C(C)C(=O)OC12CCC(C)CC2 (centres undefined),,"0.0398 µM [falling, full curve, poor fit]"
Cc1ccc(N2C(=O)c3ccccc3C2C(=O)c2ccc(O)cc2O)cc1 (centres undefined),,"14.1 µM [rising, partial curve]"
Cc1c(NC(=O)Nc2cccs2)cccc1[N+](=O)[O-],"12.6 µM [falling, single point]","12.6 µM [falling, single point]"
Cc1ccc(-n2ncc(C(=O)NCc3cccs3)c2C2CCN(C(=O)OC(C)(C)C)CC2)c(C)c1,,"11.2 µM [rising, single point]"
CSc1nc2ccc(NC(=O)c3ccc(=O)n(C)n3)cc2s1,,"35.5 µM [falling, single point]"
Cc1cc(C)n(CCc2nc(-c3ccc(-c4ccccc4)cc3)cs2)n1,,"14.1 µM [rising, partial curve]"
Cc1cccc2cc(CN(Cc3ccco3)S(=O)(=O)c3ccc4c(c3)OCCO4)c(=O)[nH]c12,"10 µM [rising, partial curve]","12.6 µM [rising, partial curve]"
CCN(CC)CCOC(=O)c1cccc(Br)c1,,"0.0112 µM [falling, full curve, poor fit]"
COc1ccc(-c2cn3c(C)c(C(=O)Nc4cc(NC(C)=O)ccc4OC)sc3n2)cc1,,"5.62 µM [rising, partial curve]"
CCC(c1nnnn1Cc1ccco1)N(Cc1ccccc1OC)Cc1cc2cc(C)ccc2[nH]c1=O (centres undefined),"7.94 µM [rising, partial curve]",
O=c1cc(O)c2sc3nc(-c4cccnc4)cc(C(F)(F)F)c3c2[nH]1,,"1.12 µM [rising, partial curve, poor fit]"
OCC(CO)NC1C[C@](O)(CO)[C@@H](O)[C@H](O)[C@H]1O (some centres undefined),"1.26 µM [falling, single point]","11.2 µM [falling, single point]"
